Reference: PMC12040169 (PLOS Biology, 2025)
The list shows a part of the results.

tested on: T1, CTL2-GFP (C. trachomatis L2/434/Bu, GFP-expressing); parameters: species or system HeLa; Intracellular C. trachomatis growth in HeLa cells, bulk GFP fluorescence relative to DMSO; conditions: bulk GFP, single well; 28.5 h, 10 µM; inhibitor
T1 construct: L2/434/Bu, GFP-expressing

SMILES	% of control remaining [%]
c1ccc(Nc2nc(-c3ccc(N4CCOCC4)cc3)cn3ccnc23)cc1 [CBK066222]	60.5084
COc1cccn(CC(=O)N(C)CCc2scnc2C)c1=O [CBK306726]	95.0725
Cc1ccc(Nc2c([N+](=O)[O-])nn(-c3ccccc3)[n+]2[O-])cc1F [CBK268414]	113.65
c1coc(-c2cc3ncc4c(n3n2)CC2CCC4N2)c1 (centres unmarked) [CBK284381]	107.375
CC1(C)CCCN(Cc2nnnn2-c2ccc(S(C)(=O)=O)cc2)C1 [CBK306181]	112.191
O=C(NCCc1ccc(Cl)cc1)C1(Cc2ccc(-c3cccnc3)cc2)CCOCC1 [CBK285589]	60.7886
COCCCN(Cc1ccccn1)Cc1c(F)cccc1F [CBK282959]	116.566
Oc1ccccc1CNC1(Cc2cc(-c3ccc(F)cc3)on2)COC1 [CBK289655]	142.163
CC(=O)N1CCN(c2c(-c3ccccc3)nnc3ccccc23)CC1 [CBK066889]	131.628
Nc1nnc(SCC(=O)N2CCN(C(c3ccccc3)c3ccccc3)CC2)s1 [CBK266320]	112.733
CC(=O)OC1CCn2c1nc1cc(C(F)(F)F)ccc12 (centres unmarked) [CBK115367]	126.551
COc1cc(-c2cncc(NCC(C)(C)CO)n2)cc(OC)c1OC [CBK037854]	129.85
CCOC(=O)c1ccccc1NC(=O)CCC(=O)O [CBK261631]	109.803
COc1ccc(S(=O)(=O)N2CCN(C(C(=O)O)c3ccc(C)cc3)CC2)cc1 (centres unmarked) [CBK296753]	117.807
FC(F)(F)c1cc(-c2cn3ccnc3c(NC3CCOCC3)n2)cc(C(F)(F)F)c1 [CBK037278]	101.218
O=C(Cc1ccc(Cl)c(Cl)c1)N1CCN(C(=O)c2ccco2)CC1 [CBK144454]	70.6999
Cc1c(Nc2ncnc3sc4c(c23)CCCC4)c(=O)n(-c2ccccc2)n1C [CBK093912]	97.3596
CCN(CC)CCN(Cc1ccc2c(c1)OCO2)C(=O)Nc1ccc(C)cc1 [CBK159059]	116.778
COC(=O)c1ccc2cccnc2c1O [CBK017876]	109.825
CCCC(NC(=O)C1C=CCN1S(C)(=O)=O)c1cccs1 (centres unmarked) [CBK282668]	99.6684
COc1ccc(CCCCN(C(=O)C(N)Cc2ccccc2)c2cccc3ccccc23)cc1OC (centres unmarked) [CBK001032T]	71.6544
O=C(OCc1ccccc1)N1CCC(C2OCc3ccc(-c4ccc(Cl)c(Cl)c4)cc3O2)CC1 (centres unmarked) [CBK144646]	108.706
Cc1ccc(-n2c(C)cc(C(=O)CSc3n[nH]c(=O)n3C3CC3)c2C)cc1C [CBK296764]	135.624
COc1cc2c(cc1OC)C1c3ccccc3N(Cn3nnc4ccccc43)C(=O)N1CC2 (centres unmarked) [CBK286193]	124.389
Cc1ccc(C2(CN3CCC(NC(=O)CO)CC3)CCCC2)cc1 [CBK282628]	120.63
Cc1cccc(-c2nc(=S)c3c(n2CCCN(C)C)CCCC3)c1 [CBK268406]	116.716

Taken from above:
Value for COc1cccn(CC(=O)N(C)CCc2scnc2C)c1=O [CBK306726] under % of control remaining [%]: 95.0725
Value for Cc1ccc(-n2c(C)cc(C(=O)CSc3n[nH]c(=O)n3C3CC3)c2C)cc1C [CBK296764] under % of control remaining [%]: 135.624
Value for CC(=O)OC1CCn2c1nc1cc(C(F)(F)F)ccc12 (centres unmarked) [CBK115367] under % of control remaining [%]: 126.551
Value for CC1(C)CCCN(Cc2nnnn2-c2ccc(S(C)(=O)=O)cc2)C1 [CBK306181] under % of control remaining [%]: 112.191

Later entries

SMILES	% of control remaining [%]
COc1ccccc1CN(C1CCNCC1)S(=O)(=O)c1c(Cl)cccc1Cl [CBK160807T]	136.93
O=C(CSc1nnc(-c2cccs2)n1-c1ccccc1)Nc1ccnc2ccccc12 [CBK267487]	117.624
CCN(CCO)c1ccc(Nc2cc(-c3ccc(C#N)cc3)ncn2)cc1 [CBK037764]	138.109
COc1cc2c(cc1OC)C(C)N(C(=O)CCC(=O)O)CC2 (centres unmarked) [CBK269873]	118.337
CCCCCc1nnc(Nc2nc(C)cc(C)n2)[nH]1 [CBK288155]	123.049
CN1CCN(c2cccc(-c3ccsc3)n2)CC1 [CBK036916]	118.546
O=C(CSc1nnc2[nH]c(=O)ccn12)NCc1ccccc1Cl [CBK287684]	103.25
CNC(=O)c1sc2ccccc2c1C1CN(Cc2cn(C)c3ccc(F)cc23)CCO1 (centres unmarked) [CBK285868]	69.4551
Cc1cc(C)nc(NC(=O)C(C)Oc2ccc(Cl)cc2C)n1 (centres unmarked) [CBK268111]	107.787
Cc1cc(-n2c(C)cc(C(=O)CSc3n[nH]c(=O)n3CC3CCCO3)c2C)no1 (centres unmarked) [CBK295589]	112.573
c1ccc(CNC2(Cc3cc(-c4ccccn4)on3)COC2)cc1 [CBK289643]	105.702
CCn1nncc1CNC1CCc2[nH]c3ccc(C)cc3c2C1 (centres unmarked) [CBK304749]	148.902
CC(=O)Nc1ccc(/C(C)=N/Nc2nc(N3CCCC3)nc(N3CCCC3)n2)cc1 [CBK021877]	107.91
O=C(O)c1ccc(S(=O)(=O)c2ccc3c(c2)C(=O)N(NC(=O)c2ccc(O)cc2)C3=O)cc1 [CBK264229]	133.878
c1ccc2c(CCN3CCN(c4nccnc4OC4CCCCC4)CC3)c[nH]c2c1 [CBK082847T]	112.164
CCCNC(=O)Cn1nc(C)n2c(cc3ccsc32)c1=O [CBK284061]	136.168
CCN1CCC2CN(CCCC(c3ccc(F)cc3)c3ccc(F)cc3)CCN2C1=O (centres unmarked) [CBK024996]	102.125
Cc1ccc2[nH]c(Cc3ccc(NC(=O)c4nc5ccccc5n(C)c4=O)cc3)nc2c1 [CBK285802]	152.806
CCCCSc1nc(N)cc(N2CCCN(C(=O)C3CCCO3)CC2)n1 (centres unmarked) [CBK307209]	93.9399
CC(C)C(=O)N1CC2(CCN(CCc3c[nH]c4ccccc34)CC2)c2ccccc21 [CBK126725]	121.028
O=C(Cn1cnc2c(F)cc(Br)cc2c1=O)N1CCOC2CCCCC21 (centres unmarked) [CBK305229]	100.791
CC1(C)CC(=O)C2=C(C1)Nc1nc(SCc3ccc([N+](=O)[O-])cc3)[nH]c(=O)c1C2c1cccnc1 (centres unmarked) [CBK266096]	194.283
CN(C(=O)CSc1nc2ccccc2nc1Cc1ccc(Cl)cc1)C1CCCCC1 [CBK294411]	87.6215
COc1ccc(C(NC(=O)c2ccc(C(C)N3CCOCC3)o2)c2ccccc2)cc1 (centres unmarked) [CBK285748]	86.3082
O=C1CCC(=O)N1CCOc1nccnc1OC1CCN(CCc2c[nH]c3ccccc23)CC1 [CBK084355]	108.635
Cc1ccc2c(c1)oc(=O)n2CCNC(=O)CC1c2ccccc2Oc2ccccc21 [CBK286194]	112.114

SMILES	% of control remaining [%]
O=C1NC2(CCSC2)C(=O)N1Cc1noc(-c2cccs2)n1 (centres unmarked) [CBK306225]	169.787
CN1CCN(c2ccc3ccn(S(=O)(=O)c4ccccc4Br)c3n2)CC1 [CBK200019C]	94.2911
NC1CC(c2cc(NCc3cn4ccccc4n3)ncn2)C1 (centres unmarked) [CBK306631]	104.705
COc1ccccc1NC(=O)c1sc2nc(N3CCOCC3)c3c(c2c1N)CCCC3 [CBK269247]	96.6458
COC(=O)CNC(=O)c1ccc(S(=O)(=O)N2CCOCC2)cc1 [CBK264873]	121.498
CS(=O)(=O)c1ccc(CN2C(=O)CC3(CCN(C(=O)Cc4cccs4)CC3)C2=O)cc1 [CBK155013]	130.541
CCCC(=O)Nc1ccc(OCc2nnc(C)o2)c(C(C)=O)c1 [CBK305943]	84.4927
O=C(CN(c1cccc(Cl)c1)S(=O)(=O)c1ccccc1)NN=C1CCCCC1 [CBK262470]	99.0267
Cc1cc(C)n2nc(C(=O)NCc3ccccn3)cc2n1 [CBK269015]	80.0955
CCNc1ncnc2c1oc1ccccc12 [CBK263298]	115.227
COc1cc(C(=O)N2CCC3(CC2)CC(=O)c2ccc(C)cc2O3)ccc1O [CBK166045]	176.655
CCN(CC)C(=O)C1CCCN(C(=O)NCCCSC)C1 (centres unmarked) [CBK156118]	89.1322
CCOc1ccccc1-n1c(CCC(=O)O)ccc1-c1cccs1 [CBK264794]	127.078
CCOC(=O)C1CCN(Cn2nc(-c3cccs3)oc2=S)CC1 [CBK295165]	130.535
COc1ccc([C@H]2CN(C(=O)c3ccccc3)[C@@H]3CCN(Cc4ccccc4C)C[C@H]23)cc1 [CBK285583]	59.6086
CCOC(=O)CN1N=C(C)C(Cc2c(Cl)cccc2Cl)(OC)C1=O (centres unmarked) [CBK112646]	105.291
Nc1cccc(-c2cn(C[C@H]3CC4CCN3C[C@@H]4C(=O)NC3CCCCC3)nn2)c1 (some centres unmarked) [CBK289083]	138.624
CS(=O)(=O)NCCCNc1ccc(C(F)(F)F)cc1[N+](=O)[O-] [CBK263741]	118.232
CS(=O)(=O)c1ccc(-c2c[nH]c([C@@H]3COCCN3Cc3ccc(C(=O)O)cc3)n2)cc1 [CBK289306]	129.537
CSCCCNC(=O)N1CCCC(CO)C1 (centres unmarked) [CBK156031]	111.33
COc1ccc(NC(=O)c2nn(-c3nc4ccccc4o3)c3ccccc23)cc1 [CBK048492]	104.304
CCCCc1c(C)nc2ccc(OC)cc2c1SCCC(=O)O [CBK263888]	100
NC(=O)c1cc(C(=O)c2ccccc2F)c[nH]1 [CBK017284]	103.705
Cn1c(CNC(=O)c2ncoc2-c2cccs2)nc2ccccc21 [CBK283985]	121.297
Cc1nc(C)c(C(=O)NCc2cccnc2N(C)C2CCCCC2)s1 [CBK306885]	145.246
